Data published in PMC11199146.
Where two headings read alike, the source gives them in different places. These are yes or no findings as the source states them, for the method shown. In cells and extracts the contact can be indirect. Some results given as binding are weak or reduced against the parent protein; the word gives no strength.

Amino acid sequences for entries named in this document (tags omitted).
UniProt Q08857: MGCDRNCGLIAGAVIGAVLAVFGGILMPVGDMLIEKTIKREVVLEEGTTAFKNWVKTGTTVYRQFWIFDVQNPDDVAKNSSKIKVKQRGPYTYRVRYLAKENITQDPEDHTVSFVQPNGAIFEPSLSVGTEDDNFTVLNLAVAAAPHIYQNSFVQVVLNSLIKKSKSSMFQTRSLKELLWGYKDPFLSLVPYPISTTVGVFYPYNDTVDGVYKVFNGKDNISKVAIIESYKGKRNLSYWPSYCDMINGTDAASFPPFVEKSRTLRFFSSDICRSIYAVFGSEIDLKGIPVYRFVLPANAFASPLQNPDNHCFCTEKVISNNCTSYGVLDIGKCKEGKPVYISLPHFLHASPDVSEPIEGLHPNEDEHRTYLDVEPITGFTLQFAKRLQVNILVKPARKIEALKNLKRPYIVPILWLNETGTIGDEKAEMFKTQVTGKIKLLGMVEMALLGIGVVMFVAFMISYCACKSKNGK
UniProt P39688: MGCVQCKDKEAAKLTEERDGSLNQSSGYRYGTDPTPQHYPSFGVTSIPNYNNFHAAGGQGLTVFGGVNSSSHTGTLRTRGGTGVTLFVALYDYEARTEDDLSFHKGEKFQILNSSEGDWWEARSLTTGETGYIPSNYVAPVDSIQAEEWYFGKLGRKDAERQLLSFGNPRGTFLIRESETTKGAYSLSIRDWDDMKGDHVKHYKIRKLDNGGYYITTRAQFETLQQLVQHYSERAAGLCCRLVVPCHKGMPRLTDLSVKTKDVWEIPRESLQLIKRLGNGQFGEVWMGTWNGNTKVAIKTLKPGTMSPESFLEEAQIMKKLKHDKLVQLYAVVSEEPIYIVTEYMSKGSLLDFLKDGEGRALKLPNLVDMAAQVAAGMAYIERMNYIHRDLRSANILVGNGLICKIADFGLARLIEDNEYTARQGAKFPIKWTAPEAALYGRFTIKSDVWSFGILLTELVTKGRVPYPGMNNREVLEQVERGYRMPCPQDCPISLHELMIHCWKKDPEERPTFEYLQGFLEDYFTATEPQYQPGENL
UniProt P25911: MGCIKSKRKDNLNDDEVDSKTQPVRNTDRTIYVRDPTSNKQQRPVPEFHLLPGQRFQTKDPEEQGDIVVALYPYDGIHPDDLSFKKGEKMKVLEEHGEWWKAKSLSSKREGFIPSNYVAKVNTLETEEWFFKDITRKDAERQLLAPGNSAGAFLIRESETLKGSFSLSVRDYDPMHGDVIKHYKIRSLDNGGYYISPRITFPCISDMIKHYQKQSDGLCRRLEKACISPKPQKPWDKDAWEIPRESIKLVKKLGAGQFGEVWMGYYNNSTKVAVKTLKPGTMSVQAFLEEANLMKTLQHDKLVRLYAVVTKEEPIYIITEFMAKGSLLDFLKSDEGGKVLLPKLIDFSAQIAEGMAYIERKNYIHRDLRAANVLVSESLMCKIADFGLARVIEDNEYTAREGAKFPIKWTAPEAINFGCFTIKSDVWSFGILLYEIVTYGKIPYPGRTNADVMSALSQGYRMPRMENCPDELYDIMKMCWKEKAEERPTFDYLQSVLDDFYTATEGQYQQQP
UniProt Q8VDZ4: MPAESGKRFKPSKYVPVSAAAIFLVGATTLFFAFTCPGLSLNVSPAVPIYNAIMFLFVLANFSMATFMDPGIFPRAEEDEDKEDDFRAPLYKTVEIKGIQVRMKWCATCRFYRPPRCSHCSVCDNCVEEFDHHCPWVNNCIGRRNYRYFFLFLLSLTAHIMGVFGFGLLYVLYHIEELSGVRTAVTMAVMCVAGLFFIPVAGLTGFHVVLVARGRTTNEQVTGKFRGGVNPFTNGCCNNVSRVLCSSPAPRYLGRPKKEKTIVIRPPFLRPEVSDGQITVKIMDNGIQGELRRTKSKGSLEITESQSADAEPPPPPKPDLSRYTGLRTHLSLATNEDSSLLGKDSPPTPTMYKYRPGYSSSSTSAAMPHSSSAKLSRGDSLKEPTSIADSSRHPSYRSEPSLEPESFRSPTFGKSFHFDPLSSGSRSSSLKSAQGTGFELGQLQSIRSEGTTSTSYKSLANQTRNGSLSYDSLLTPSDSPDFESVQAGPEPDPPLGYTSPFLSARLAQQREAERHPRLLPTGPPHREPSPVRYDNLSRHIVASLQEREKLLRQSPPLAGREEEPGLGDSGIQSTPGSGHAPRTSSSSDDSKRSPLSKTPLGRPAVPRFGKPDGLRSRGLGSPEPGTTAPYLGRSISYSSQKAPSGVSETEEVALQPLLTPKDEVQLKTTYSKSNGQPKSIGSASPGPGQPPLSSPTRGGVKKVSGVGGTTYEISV

Legend:
[1] = target: Cluster of differentiation (CD36), membrane-localized fatty acid translocase (mouse (endogenous in primary neonatal mouse cardiomyocytes)) (UniProt Q08857); assay: co-IP; endogenous proteins; NP-40 lysates of primary NMCMs treated with PA + OA for 24 h, immunoprecipitated with an antibody and Protein A/G magnetic beads, then western blot; cells from TGR5 fl/fl or TGR5 deltaCM mice, or with or without INT-777; CD36 immunoprecipitation for Fyn and Lyn, precipitating antibody not told for DHHC4 and DHHC5
[2] = target: Cluster of differentiation (CD36), membrane-localized fatty acid translocase (mouse (endogenous in primary neonatal mouse cardiomyocytes)) (UniProt Q08857); assay: as above; remark: listed apart in the source

Row | Molecule | binding [1] | binding [2]
1 | Src family kinase Fyn (from UniProt P39688 1-537) (enzyme) | binds | 
2 | palmitoyl acyltransferase DHHC4 (enzyme, UniProt Q9D6H5 1-343) MDFLVLFLFYLAFLLICVVLICIFTKSQRLKAVVLGGAQVCSRVIPQCLQRAVQTLLHQLFHTRHPTFIVLHLLLQGLVYAEYTCEVFGYCRELEFSLPYLLLPYVLLSVNLVFFTLTCAANPGTITKANESFLLQVYKFDDVMFPKNSRCPTCDLRKPARSKHCRLCDRCVHRFDHHCVWVNNCIGAWNTRYFLIYLLTLTASAATIATVTAAFLLRLVTVSDLYQETYLDDVGHFQAVDTVFLIQHLFLAFPRIVFLLGFVIVLSMLLAGYLCFALYLAATNQTTNEWYKGDWAWCQRWPLVAWSPSAEPRIHQNIHSHGFRSNLREIFLPATPSYKKKEK |  | binds

Second part, the molecule after the results:

Row | binding [1] | binding [2] | Molecule
3 | binds |  | Src family kinase Lyn (from UniProt P25911 1-512) (enzyme)
4 | binds |  | palmitoyl acyltransferase DHHC5 (from UniProt Q8VDZ4 1-715) (enzyme)
